No constants are given. Whether binding was seen depends on the method and setting. In cells and extracts the contact can be indirect. Some entries that bind do so weakly or less than the wild type.
Biological target: mouse double minute 2 (MDM2) protein (human (endogenous in GF-1712 and U87)) (UniProt Q00987)
Test: co-IP; GF-1712 and U87 cells in RIPA lysis buffer; incubation with anti-MTBP or anti-MDM2 overnight at 4°C, protein-A/G PLUS-Agarose beads, western blot; anti-IgG as negative control

By UniProt entry, the sequences of proteins in these tests, tags left out.
UniProt Q00987: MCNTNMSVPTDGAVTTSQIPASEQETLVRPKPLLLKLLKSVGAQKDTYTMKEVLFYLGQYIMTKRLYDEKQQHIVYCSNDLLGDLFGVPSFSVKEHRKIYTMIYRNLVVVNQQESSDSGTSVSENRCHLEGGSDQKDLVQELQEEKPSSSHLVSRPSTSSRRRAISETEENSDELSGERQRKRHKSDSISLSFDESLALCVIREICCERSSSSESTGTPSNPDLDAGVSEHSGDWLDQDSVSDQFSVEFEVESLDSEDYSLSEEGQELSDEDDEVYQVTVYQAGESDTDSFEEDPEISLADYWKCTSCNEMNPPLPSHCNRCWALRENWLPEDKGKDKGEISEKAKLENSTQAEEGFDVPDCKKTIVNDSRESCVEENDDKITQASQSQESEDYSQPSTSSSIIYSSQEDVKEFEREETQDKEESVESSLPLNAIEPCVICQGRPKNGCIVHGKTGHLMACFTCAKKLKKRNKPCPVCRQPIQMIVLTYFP

binding: binds
B1: MDM2 binding protein (MTBP) (protein, UniProt Q96DY7 1-904)
chain: MDRYLLLVIWGEGKFPSAASREAEHGPEVSSGEGTENQPDFTAANVYHLLKRSISASINPEDSTFPACSVGGIPGSKKWFFAVQAIYGFYQFCSSDWQEIHFDTEKDKIEDVLQTNIEECLGAVECFEEEDSNSRESLSLADLYEEAAENLHQLSDKLPAPGRAMVDIILLLSDKDPPKLKDYLPTVGALKHLREWYSAKITIAGNHCEINCQKIAEYLSANVVSLEDLRNVIDSKELWRGKIQIWERKFGFEISFPEFCLKGVTLKNFSTSNLNTDFLAKKIIPSKDKNILPKVFHYYGPALEFVQMIKLSDLPSCYMSDIEFELGLTNSTKQNSVLLLEQISSLCSKVGALFVLPCTISNILIPPPNQLSSRKWKEYIAKKPKTISVPDVEVKGECSSYYLLLQGNGNRRCKATLIHSANQINGSFALNLIHGKMKTKTEEAKLSFPFDLLSLPHFSGEQIVQREKQLANVQVLALEECLKRRKLAKQPETVSVAELKSLLVLTRKHFLDYFDAVIPKMILRKMDKIKTFNILNDFSPVEPNSSSLMETNPLEWPERHVLQNLETFEKTKQKMRTGSLPHSSEQLLGHKEGPRDSITLLDAKELLKYFTSDGLPIGDLQPLPIQKGEKTFVLTPELSPGKLQVLPFEKASVCHYHGIEYCLDDRKALERDGGFSELQSRLIRYETQTTCTRESFPVPTVLSPLPSPVVSSDPGSVPDGEVLQNELRTEVSRLKRRSKDLNCLYPRKRLVKSESSESLLSQTTGNSNHYHHHVTSRKPQTERSLPVTCPLVPIPSCETPKLATKTSSGQKSMHESKTSRQIKESRSQKHTRILKEVVTETLKKHSITETHECFTACSQRLFEISKFYLKDLKTSRGLFEEMKKTANNNAVQVIDWVLEKTSKK

From publication PMC6735364
